# Results are given in words; binding and its absence hold for the method and conditions named. Binding seen in cells or lysates may run through a third protein. Some results given as binding are weak or reduced against the parent protein; the word gives no strength. Sequences can lack the tags named with a protein.
# T1: GEF-H1 (S324A) variant (human) (UniProt Q92974)
# T1 sequence: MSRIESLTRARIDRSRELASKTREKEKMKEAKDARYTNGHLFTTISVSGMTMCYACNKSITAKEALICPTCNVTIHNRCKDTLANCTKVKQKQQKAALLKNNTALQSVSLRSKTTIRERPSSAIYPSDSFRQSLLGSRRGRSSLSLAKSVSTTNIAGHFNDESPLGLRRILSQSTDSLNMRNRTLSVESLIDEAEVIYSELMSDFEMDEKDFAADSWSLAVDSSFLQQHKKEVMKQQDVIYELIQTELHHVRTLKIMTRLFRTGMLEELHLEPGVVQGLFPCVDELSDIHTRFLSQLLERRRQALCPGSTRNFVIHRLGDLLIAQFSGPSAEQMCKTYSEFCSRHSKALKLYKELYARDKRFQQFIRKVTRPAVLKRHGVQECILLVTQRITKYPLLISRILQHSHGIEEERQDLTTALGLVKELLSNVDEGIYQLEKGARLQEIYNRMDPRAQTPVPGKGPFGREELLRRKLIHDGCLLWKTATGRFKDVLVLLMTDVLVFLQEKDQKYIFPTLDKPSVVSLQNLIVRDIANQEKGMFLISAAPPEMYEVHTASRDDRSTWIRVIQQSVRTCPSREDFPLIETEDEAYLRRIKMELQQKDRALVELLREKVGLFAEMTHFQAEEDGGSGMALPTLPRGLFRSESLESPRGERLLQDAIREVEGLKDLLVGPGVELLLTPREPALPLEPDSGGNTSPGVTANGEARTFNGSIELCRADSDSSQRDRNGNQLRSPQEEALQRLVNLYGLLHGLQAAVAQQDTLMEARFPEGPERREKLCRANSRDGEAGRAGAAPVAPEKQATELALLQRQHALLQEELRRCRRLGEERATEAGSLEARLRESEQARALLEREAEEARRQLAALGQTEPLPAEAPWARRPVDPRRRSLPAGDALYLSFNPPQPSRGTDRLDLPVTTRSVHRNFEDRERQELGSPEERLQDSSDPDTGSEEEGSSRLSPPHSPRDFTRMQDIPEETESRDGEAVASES
# T2: GEF-H1 (Y394A) variant, exchange deficient (human) (UniProt Q92974)
# T2 sequence: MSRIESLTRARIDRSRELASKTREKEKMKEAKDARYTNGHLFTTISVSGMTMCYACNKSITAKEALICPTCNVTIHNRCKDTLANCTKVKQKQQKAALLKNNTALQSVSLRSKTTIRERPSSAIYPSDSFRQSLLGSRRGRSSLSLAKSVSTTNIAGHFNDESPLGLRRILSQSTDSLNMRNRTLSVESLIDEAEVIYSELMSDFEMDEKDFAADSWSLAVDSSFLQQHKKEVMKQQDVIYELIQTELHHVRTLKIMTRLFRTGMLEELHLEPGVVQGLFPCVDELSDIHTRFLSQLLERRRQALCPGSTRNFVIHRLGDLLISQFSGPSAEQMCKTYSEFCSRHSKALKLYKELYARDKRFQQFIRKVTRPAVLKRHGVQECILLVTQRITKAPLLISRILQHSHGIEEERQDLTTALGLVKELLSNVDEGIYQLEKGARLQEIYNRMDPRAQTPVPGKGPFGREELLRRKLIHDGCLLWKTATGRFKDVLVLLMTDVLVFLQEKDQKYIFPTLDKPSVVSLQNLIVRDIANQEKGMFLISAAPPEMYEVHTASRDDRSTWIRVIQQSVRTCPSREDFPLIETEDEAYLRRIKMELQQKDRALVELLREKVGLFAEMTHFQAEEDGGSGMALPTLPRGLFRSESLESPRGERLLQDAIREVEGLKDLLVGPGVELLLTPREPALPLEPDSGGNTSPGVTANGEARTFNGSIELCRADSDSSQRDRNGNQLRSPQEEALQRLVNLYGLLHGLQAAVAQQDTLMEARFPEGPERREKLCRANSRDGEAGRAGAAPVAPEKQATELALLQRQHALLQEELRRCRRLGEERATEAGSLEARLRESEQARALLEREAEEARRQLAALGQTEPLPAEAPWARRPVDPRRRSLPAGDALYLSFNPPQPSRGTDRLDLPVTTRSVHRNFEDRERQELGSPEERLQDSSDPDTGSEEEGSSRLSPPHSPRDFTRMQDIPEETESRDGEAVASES
# Legend:
# [1] = molecular target: T1, GEF-H1 (S324A) variant (human); experiment: co-IP; HEK293T cells transfected with the indicated plasmids (GEF-H1 WT or variants with IRF5, IKKε, IKKβ; with or without RIPK2 or NOD2); precipitated with anti-GEF-H1, protein G agarose; lysis buffer 1% NP-40, 20 mM Tris-HCl pH 7.4, 150 mM NaCl; partners detected by western blot
# [2] = molecular target: T2, GEF-H1 (Y394A) variant, exchange deficient (human); experiment: as above
Binder,binding [1],binding [2]
"human IKKε (pcDNA3-huIKKε-flag) (enzyme, UniProt Q14164 1-716) MQSTANYLWHTDDLLGQGATASVYKARNKKSGELVAVKVFNTTSYLRPREVQVREFEVLRKLNHQNIVKLFAVEETGGSRQKVLVMEYCSSGSLLSVLESPENAFGLPEDEFLVVLRCVVAGMNHLRENGIVHRDIKPGNIMRLVGEEGQSIYKLTDFGAARELDDDEKFVSVYGTEEYLHPDMYERAVLRKPQQKAFGVTVDLWSIGVTLYHAATGSLPFIPFGGPRRNKEIMYRITTEKPAGAIAGAQRRENGPLEWSYTLPITCQLSLGLQSQLVPILANILEVEQAKCWGFDQFFAETSDILQRVVVHVFSLSQAVLHHIYIHAHNTIAIFQEAVHKQTSVAPRHQEYLFEGHLCVLEPSVSAQHIAHTTASSPLTLFSTAIPKGLAFRDPALDVPKFVPKVDLQADYNTAKGVLGAGYQALRLARALLDGQELMFRGLHWVMEVLQATCRRTLEVARTSLLYLSSSLGTERFSSVAGTPEIQELKAAAELRSRLRTLAEVLSRCSQNITETQESLSSLNRELVKSRDQVHEDRSIQQIQCCLDKMNFIYKQFKKSRMRPGLGYNEEQIHKLDKVNFSHLAKRLLQVFQEECVQKYQASLVTHGKRMRVVHETRNHLRLVGCSVAACNTEAQGVQESLSKLLEELSHQLLQDRAKGAQASPPPIAPYPSPTRKDLLLHMQELCEGMKLLASDLLDNNRIIERLNRVPAPPDV",binds,binds
"human IKKβ (pcDNA3.1-huIKKβ-HA) (enzyme, UniProt O14920 1-756) MSWSPSLTTQTCGAWEMKERLGTGGFGNVIRWHNQETGEQIAIKQCRQELSPRNRERWCLEIQIMRRLTHPNVVAARDVPEGMQNLAPNDLPLLAMEYCQGGDLRKYLNQFENCCGLREGAILTLLSDIASALRYLHENRIIHRDLKPENIVLQQGEQRLIHKIIDLGYAKELDQGSLCTSFVGTLQYLAPELLEQQKYTVTVDYWSFGTLAFECITGFRPFLPNWQPVQWHSKVRQKSEVDIVVSEDLNGTVKFSSSLPYPNNLNSVLAERLEKWLQLMLMWHPRQRGTDPTYGPNGCFKALDDILNLKLVHILNMVTGTIHTYPVTEDESLQSLKARIQQDTGIPEEDQELLQEAGLALIPDKPATQCISDGKLNEGHTLDMDLVFLFDNSKITYETQISPRPQPESVSCILQEPKRNLAFFQLRKVWGQVWHSIQTLKEDCNRLQQGQRAAMMNLLRNNSCLSKMKNSMASMSQQLKAKLDFFKTSIQIDLEKYSEQTEFGITSDKLLLAWREMEQAVELCGRENEVKLLVERMMALQTDIVDLQRSPMGRKQGGTLDDLEEQARELYRRLREKPRDQRTEGDSQEMVRLLLQAIQSFEKKVRVIYTQLSKTVVCKQKALELLPKVEEVVSLMNEDEKTVVRLQEKRQKELWNLLKIACSKVRGPVSGSPDSMNASRLSQPGQLMSQPSTASNSLPEPAKKSEELVAEAHNLCTLLENAIQDTVREQDQSFTALDWSWLQTEEEEHSCLEQAS",binds,binds

# From PMC6430831
